Measured values as given in article PMC7819943, “Rice protein-binding microarrays: a tool to detect cis-acting elements near promoter regions in rice”.
The other results are listed elsewhere or left out.

Protein sequences, listed by entry. Tags and fused reporters are not part of them.
UniProt Q0JBA9, entry or part of it: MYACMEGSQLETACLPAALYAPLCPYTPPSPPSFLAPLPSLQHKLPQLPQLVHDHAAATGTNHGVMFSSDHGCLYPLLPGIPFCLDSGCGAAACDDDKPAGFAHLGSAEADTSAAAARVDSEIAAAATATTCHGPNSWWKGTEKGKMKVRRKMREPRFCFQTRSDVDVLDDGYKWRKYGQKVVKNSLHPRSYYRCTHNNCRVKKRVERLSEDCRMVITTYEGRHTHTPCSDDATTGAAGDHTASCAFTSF

Target: OsWRKY34 (Oryza sativa, UniProt Q0JBA9 1-250)
Experiment: protein-binding microarray (RPBM); PBS, 2% BSA, 51.3 ng/ul salmon testes DNA, 50 uM zinc acetate, 200 nM TF, 25 C, 1 h; high values mean tight binding
Conditions: protein: recombinant; tags: N-terminal polyhistidine and DsRed monomer fusion (pET32a); label: CyDye5-dUTP incorporated in the synthesized complementary strand; 3' TTTTT single-stranded linker to array surface; dsDNA, one strand shown
Method in brief: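 Binding signal is reported as fluorescence intensity per feature (arbitrary units) from an Axon 4000B scanner. Incubation used 200 nM of each Ni–NTA-purified, N-terminally polyhistidine- and DsRed-fused transcription factor from E. coli BL21-CodonPlus on a double-stranded custom Agilent array for 1 h at 25 °C, with 50 µM zinc acetate in the buffer, followed by washing.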

Row | Sequence | binding signal
1 | TTCGGCAATCTAGCCGGCGTCCCAACTCCTCGCTGCCGCACGGAGTCACCTAGTGCAG | 8060 fluorescence intensity (a.u.)
2 | ACGCAGGCCGTCCCGTTCCGTTTCGTTTCCCCTGCCCGAGCGGAGTCACCTAGTGCAG | 8300 fluorescence intensity (a.u.)
3 | ATTGAAACATGATCCGAGTCATAGCCTGACTGGAATTCTTCGGAGTCACCTAGTGCAG | 9120 fluorescence intensity (a.u.)
4 | ACCTCGCCGCCTCCTCCGTTGCCGGCGATCCCGGCACATGCGGAGTCACCTAGTGCAG | 9070 fluorescence intensity (a.u.)
5 | CATAGTAGGCCATAAATTTGCTACCTTTTGTTCTTGCTTTCGGAGTCACCTAGTGCAG | 8500 fluorescence intensity (a.u.)
6 | AAAAAATTGGCATTTCTTCGCTCTAGACACAATTCCTGTGCGGAGTCACCTAGTGCAG | 10600 fluorescence intensity (a.u.)
7 | TTGTCTTGTCTGTCTGGTTGGCCGGCCGGGAGTCGCGCGCCGGAGTCACCTAGTGCAG | 8620 fluorescence intensity (a.u.)
8 | TGCTCCGCTCGGCTGCAGCTGCCGCCGCTGTTACGGATTACGGAGTCACCTAGTGCAG | 8230 fluorescence intensity (a.u.)
9 | GTGTTGCGCCTATAAATGTCGTTGATTGCCGCATCATTACCGGAGTCACCTAGTGCAG | 8360 fluorescence intensity (a.u.)
10 | CTTTTCTCCCTTCTTTCTCTTTCACGTCATATATGATAATCGGAGTCACCTAGTGCAG | 8530 fluorescence intensity (a.u.)
11 | GGAGTACCACATAGCCGTTCAGCTCTAGTCAAACGTCATTCGGAGTCACCTAGTGCAG | 8200 fluorescence intensity (a.u.)
12 | AGGGTGGGTGGAAAGATTACACATGAAAATATGACAAGAACGGAGTCACCTAGTGCAG | 8620 fluorescence intensity (a.u.)
13 | AATTATCTTGAAGCACCTCAACTCAACCTGATGTCATACACGGAGTCACCTAGTGCAG | 8370 fluorescence intensity (a.u.)
14 | TATTTACCGTTTCTGTTTGTCGTCGCCTGCGCGCGACGCTCGGAGTCACCTAGTGCAG | 9660 fluorescence intensity (a.u.)
15 | CAGGTGGTACAGAGCTTATCATTACAATTGCATGGTCAATCGGAGTCACCTAGTGCAG | 10200 fluorescence intensity (a.u.)
16 | TAGGTGGTGTTTGGTTTATGGATCAGGTGGGTTGGGTTGGCGGAGTCACCTAGTGCAG | 8740 fluorescence intensity (a.u.)
17 | CCATATATGCTCTTCACACTACTTGCATATTTTGGTTATTCGGAGTCACCTAGTGCAG | 10100 fluorescence intensity (a.u.)
18 | CTTCTCTCGCCGCCCGCGCGCGCGCTCTCCGGCGACCATGCGGAGTCACCTAGTGCAG | 8640 fluorescence intensity (a.u.)
19 | GTGACACCCAGAAATTTTCTTTTCGCGATTTAAACACATACGGAGTCACCTAGTGCAG | 10100 fluorescence intensity (a.u.)
20 | AGAGGCCTGAACTAGTATAATCCTTGTCTTTTGTCTGCTTCGGAGTCACCTAGTGCAG | 10600 fluorescence intensity (a.u.)
21 | GTGCTCGAGTGCTCGACCAGCCTTCGTCTCCGCTCGCCTCCGGAGTCACCTAGTGCAG | 8620 fluorescence intensity (a.u.)

Entries 5 through 17, quoted:
Row | Sequence | binding signal
5 | CATAGTAGGCCATAAATTTGCTACCTTTTGTTCTTGCTTTCGGAGTCACCTAGTGCAG | 8500 fluorescence intensity (a.u.)
6 | AAAAAATTGGCATTTCTTCGCTCTAGACACAATTCCTGTGCGGAGTCACCTAGTGCAG | 10600 fluorescence intensity (a.u.)
7 | TTGTCTTGTCTGTCTGGTTGGCCGGCCGGGAGTCGCGCGCCGGAGTCACCTAGTGCAG | 8620 fluorescence intensity (a.u.)
8 | TGCTCCGCTCGGCTGCAGCTGCCGCCGCTGTTACGGATTACGGAGTCACCTAGTGCAG | 8230 fluorescence intensity (a.u.)
9 | GTGTTGCGCCTATAAATGTCGTTGATTGCCGCATCATTACCGGAGTCACCTAGTGCAG | 8360 fluorescence intensity (a.u.)
10 | CTTTTCTCCCTTCTTTCTCTTTCACGTCATATATGATAATCGGAGTCACCTAGTGCAG | 8530 fluorescence intensity (a.u.)
11 | GGAGTACCACATAGCCGTTCAGCTCTAGTCAAACGTCATTCGGAGTCACCTAGTGCAG | 8200 fluorescence intensity (a.u.)
12 | AGGGTGGGTGGAAAGATTACACATGAAAATATGACAAGAACGGAGTCACCTAGTGCAG | 8620 fluorescence intensity (a.u.)
13 | AATTATCTTGAAGCACCTCAACTCAACCTGATGTCATACACGGAGTCACCTAGTGCAG | 8370 fluorescence intensity (a.u.)
14 | TATTTACCGTTTCTGTTTGTCGTCGCCTGCGCGCGACGCTCGGAGTCACCTAGTGCAG | 9660 fluorescence intensity (a.u.)
15 | CAGGTGGTACAGAGCTTATCATTACAATTGCATGGTCAATCGGAGTCACCTAGTGCAG | 10200 fluorescence intensity (a.u.)
16 | TAGGTGGTGTTTGGTTTATGGATCAGGTGGGTTGGGTTGGCGGAGTCACCTAGTGCAG | 8740 fluorescence intensity (a.u.)
17 | CCATATATGCTCTTCACACTACTTGCATATTTTGGTTATTCGGAGTCACCTAGTGCAG | 10100 fluorescence intensity (a.u.)

Next results

Row | Sequence | binding signal
22 | GCTGTATCCCAGAAGTTACTGTACAGTTTGCCAATTTCATCGGAGTCACCTAGTGCAG | 9450 fluorescence intensity (a.u.)
23 | ATTTTTGATCCCGTTGACGCTCTAGTATGTTTCTTCTCGTCGGAGTCACCTAGTGCAG | 10200 fluorescence intensity (a.u.)
24 | CTTTAATAGTATAGCCAACTACTACCTCGGAATCACCTATCGGAGTCACCTAGTGCAG | 20300 fluorescence intensity (a.u.)
25 | ACTCTCTCTCTCTCTCTGCTTCTTCTTGTGTTGTGCTTGTCGGAGTCACCTAGTGCAG | 9800 fluorescence intensity (a.u.)
26 | ATGGTTCGTCTTGTTCGTATATTTTTTTTATGGTGCATATCGGAGTCACCTAGTGCAG | 11700 fluorescence intensity (a.u.)
27 | CAAATGTTCCAATGACTTGGATTCTTTTTCATAATTATGTCGGAGTCACCTAGTGCAG | 8380 fluorescence intensity (a.u.)
28 | GCCACATTACGCTGATCTTTCAGATTCCCTTTTCGTCAGACGGAGTCACCTAGTGCAG | 9530 fluorescence intensity (a.u.)
29 | ATTGGGCTCATTTCATCCCTTCCAAATTCTACCTCCCAAACGGAGTCACCTAGTGCAG | 8700 fluorescence intensity (a.u.)
30 | TCTGAAGCGGTGTGTGTTTTCCCAAGTAGCAACCAACCTGCGGAGTCACCTAGTGCAG | 8580 fluorescence intensity (a.u.)
31 | ATTTGCATGCCGTCTTATGCACGCATTCTACTAATACCTCCGGAGTCACCTAGTGCAG | 8770 fluorescence intensity (a.u.)
32 | GGCAGATTTTTTTTATTCGGTACGAGGTTGTTTCTTAATACGGAGTCACCTAGTGCAG | 10900 fluorescence intensity (a.u.)
33 | ACAAAGATTGCATAAACCTGCATGATTCCTACTTTGTTTTCGGAGTCACCTAGTGCAG | 8700 fluorescence intensity (a.u.)
34 | TTTACCCTAGTCGATCTCCCCGTCGCTTCGGTCTCGACTCCGGAGTCACCTAGTGCAG | 10200 fluorescence intensity (a.u.)
35 | AAGCTCCGATCCACAGCGCACCTCGAGCCCTACCTCCGATCGGAGTCACCTAGTGCAG | 8940 fluorescence intensity (a.u.)
36 | GGCCGCACCGCTCCGCCTTCGTCTCCGCCACCCGCCACCCCGGAGTCACCTAGTGCAG | 9910 fluorescence intensity (a.u.)
37 | CCCTACGTGCCCTTAAATTGGACATCCTCTTTCACTTCACCGGAGTCACCTAGTGCAG | 11000 fluorescence intensity (a.u.)
38 | CATAAACAGATGCTAATTCTTGGTGGTCGGGGTGGGTCTCCGGAGTCACCTAGTGCAG | 13600 fluorescence intensity (a.u.)
39 | GTTGATGATGCCAATATCATTTTTGGTTGTGCTTTCATGGCGGAGTCACCTAGTGCAG | 8290 fluorescence intensity (a.u.)
40 | CAATCATTCAATCATCGCCGCCTTATCTTTCCCAATTCGACGGAGTCACCTAGTGCAG | 10100 fluorescence intensity (a.u.)
41 | ACTTTTTTTTTTGTCTGATCTGTTATTTTTATCCCTCTACCGGAGTCACCTAGTGCAG | 8950 fluorescence intensity (a.u.)
42 | TATATTTCTCTTGTGCATAGGGATGTTTAGTCTTTTACATCGGAGTCACCTAGTGCAG | 8430 fluorescence intensity (a.u.)
